Assay results taken from US20210261642A1, “SOLUBILITY OF GLP-1 PEPTIDE” (Novo Nordisk A/S, priority 2017, published 2021).
This continues a long series; more values of the same kind are listed elsewhere.

Test: Assay (I): Determination of Solubility (96-well plate, pH 3.0-11.0, organic solvent 0-70% w/w, UV absorption at 280 nm)
Assay type: physicochemical
Procedure: Assay (I): Determination of Solubility
96-Well Plate Preparation
96-well plates containing target peptide in a solid form were prepared in one of two ways:
Method 1 (evaporation): Addition of 100 μl stock solution of said peptide at a concentration of 4-6 mg/ml to each well of a 96-well half area plate (150 μl well size). Subsequently the solvent was evaporated by applying a vacuum until the solvent was completely removed.
Method 2 (precipitation): Addition of a certain volume of a stock solution of said peptide containing to each well of a 96-well half area plate followed by the addition of a certain volume of concentrated phosphoric acid to obtain a pH of 4.6 followed by addition of a certain volume of ethanol resulting in a final ethanol concentration of 20% v/v. Subsequently the plate was stored at 4° C. for 1 h and then centrifuged at 4,000 rpm for 20 min. Finally the supernatant was removed. The concentration of the stock solution was chosen in a way that the final amount of peptide after supernatant removal was >0.4 mg per well.
In both cases the stock solution was prepared by adding de-ionized water to a certain amount of powder of said peptide followed by a stepwise addition of small amounts of a concentrated sodium hydroxide solution until said peptide was completely in solution.
To determine solubility of a target peptide at different pH and organic solvent concentrations, two different buffer systems were used in independent experiments to cover the whole range from pH 3.0 to pH 11.0. Buffer system 1 covers pH 3.0-7.5 and buffer system 2 covers pH 7.5-11.0. For each buffer system 96 different solvent compositions were premixed in the following way: • 1. A low pH buffer (adjusted to either pH 3.0 or pH 7.5) and a high pH buffer (adjusted to either pH 7.5 or pH 11.0) were mixed at 8 different ratios to obtain values between pH 3.0 and pH 7.5 or pH 7.5 and pH 11.0, respectively. The total volume after mixing was 300 μl. • 2. 12 different amounts of organic solvent were then added to these buffers to obtain organic solvent (e.g. ethanol) concentrations between 0 and 70% w/w. • 3. Water was then added to obtain a total weight of 1.0 g of solvent in each well.
After preparing the 96 different solvent systems, 100 μl of each system was transferred to the 96-well plate containing the solid form of the target peptide (prepared as described in the section “96-well plate preparation”). The plate was then stored at a given temperature (between 5° C. and 70° C.) for a given time on a rotating shaker set to 400 rpm. At regular time intervals the plate was centrifuged (4,000 rpm for 10 min) and a 10 μl sample was taken from each well. The samples were then analysed by UV absorption at 280 nm for peptide quantification. Peptide concentration results are given as UV absorption at 280 nm of the sample subtracted UV absorption at 280 nm of a well comprising 10 μl water.
The buffers used were as follows: • Buffer system 1 (for the pH range from pH 3.0-7.5)
• Buffer system 2 (for the pH ranae from pH 7.5-11.0)
Solubility of liraglutide was determined using Assay (I) described herein. Liraglutide was prepared using Method 1 (evaporation) or Method 2 (precipitation) as described in subsection “96-well plate preparation”.

[1] = MeCN 38.2% w/w, pH 3.0, 70° C., Method 1
[2] = MeCN 38.2% w/w, pH 3.0, RT, Method 1
[3] = MeCN 38.2% w/w, pH 3.6, 5° C., Method 1
[4] = MeCN 38.2% w/w, pH 3.6, 70° C., Method 1
[5] = MeCN 38.2% w/w, pH 3.6, RT, Method 1
[6] = MeCN 38.2% w/w, pH 4.3, 5° C., Method 1
[7] = MeCN 38.2% w/w, pH 4.3, 70° C., Method 1
[8] = MeCN 38.2% w/w, pH 4.3, RT, Method 1
[9] = MeCN 38.2% w/w, pH 4.9, 5° C., Method 1
[10] = MeCN 38.2% w/w, pH 4.9, 70° C., Method 1
[11] = MeCN 38.2% w/w, pH 4.9, RT, Method 1
[12] = MeCN 38.2% w/w, pH 5.6, 5° C., Method 1
[13] = MeCN 38.2% w/w, pH 5.6, 70° C., Method 1
[14] = MeCN 38.2% w/w, pH 5.6, RT, Method 1
[15] = MeCN 38.2% w/w, pH 6.2, 5° C., Method 1
[16] = MeCN 38.2% w/w, pH 6.2, 70° C., Method 1
[17] = MeCN 38.2% w/w, pH 6.2, RT, Method 1
[18] = MeCN 38.2% w/w, pH 6.9, 5° C., Method 1
[19] = MeCN 38.2% w/w, pH 6.9, 70° C., Method 1
[20] = MeCN 38.2% w/w, pH 6.9, RT, Method 1
[21] = MeCN 38.2% w/w, pH 7.5, 5° C., Method 1
[22] = MeCN 38.2% w/w, pH 7.5, 70° C., Method 1
[23] = MeCN 38.2% w/w, pH 7.5, RT, Method 1
[24] = MeCN 38.2% w/w, pH 8.0, 70° C., Method 1 (evaporation)
[25] = MeCN 38.2% w/w, pH 8.0, RT, Method 1
[26] = MeCN 38.2% w/w, pH 8.5, 70° C., Method 1 (evaporation)
[27] = MeCN 38.2% w/w, pH 8.5, RT, Method 1
[28] = MeCN 38.2% w/w, pH 9.0, 70° C., Method 1 (evaporation)
[29] = MeCN 38.2% w/w, pH 9.0, RT, Method 1
[30] = MeCN 38.2% w/w, pH 9.5, 70° C., Method 1 (evaporation)
[31] = MeCN 38.2% w/w, pH 9.5, RT, Method 1
[32] = MeCN 38.2% w/w, pH 10.0, 70° C., Method 1 (evaporation)
[33] = MeCN 38.2% w/w, pH 10.0, RT, Method 1
[34] = MeCN 38.2% w/w, pH 10.5, 70° C., Method 1 (evaporation)
[35] = MeCN 38.2% w/w, pH 10.5, RT, Method 1
[36] = MeCN 38.2% w/w, pH 11.0, 70° C., Method 1 (evaporation)
[37] = MeCN 38.2% w/w, pH 11.0, RT, Method 1
[38] = MeCN 44.5% w/w, pH 3.0, 5° C., Method 1

Peptide concentration after 24 h (MeCN 38.2% w/w, pH 3.0, 5° C., Method 1): 0.5 mg/mL
Peptide concentration after 5 min [1]: 0.7 mg/mL
Peptide concentration after 180 min [1]: 1.1 mg/mL
Peptide concentration after 5 min [2]: 0.4 mg/mL
Peptide concentration after 180 min [2]: 0.5 mg/mL
Peptide concentration after 24 h [2]: 0.1 mg/mL
Peptide concentration after 5 min [3]: 0.2 mg/mL
Peptide concentration after 180 min [3]: 0.5 mg/mL
Peptide concentration after 24 h [3]: 0.5 mg/mL
Peptide concentration after 5 min [4]: 0.4 mg/mL
Peptide concentration after 180 min [4]: 0.6 mg/mL
Peptide concentration after 5 min [5]: 0.2 mg/mL
Peptide concentration after 180 min [5]: 0.3 mg/mL
Peptide concentration after 24 h [5]: 0.0 mg/mL
Peptide concentration after 5 min [6]: 0.2 mg/mL
Peptide concentration after 180 min [6]: 0.3 mg/mL
Peptide concentration after 24 h [6]: 0.2 mg/mL
Peptide concentration after 5 min [7]: 0.4 mg/mL
Peptide concentration after 180 min [7]: 0.3 mg/mL
Peptide concentration after 5 min [8]: 0.3 mg/mL
Peptide concentration after 180 min [8]: 0.2 mg/mL
Peptide concentration after 24 h [8]: 0.1 mg/mL
Peptide concentration after 5 min [9]: 0.1 mg/mL
Peptide concentration after 180 min [9]: 0.3 mg/mL
Peptide concentration after 24 h [9]: 0.2 mg/mL
Peptide concentration after 5 min [10]: 0.3 mg/mL
Peptide concentration after 180 min [10]: 0.3 mg/mL
Peptide concentration after 5 min [11]: 0.2 mg/mL
Peptide concentration after 180 min [11]: 0.2 mg/mL
Peptide concentration after 24 h [11]: 0.0 mg/mL
Peptide concentration after 5 min [12]: 0.6 mg/mL
Peptide concentration after 180 min [12]: 0.6 mg/mL
Peptide concentration after 24 h [12]: 0.2 mg/mL
Peptide concentration after 5 min [13]: 1.1 mg/mL
Peptide concentration after 180 min [13]: 0.8 mg/mL
Peptide concentration after 5 min [14]: 0.7 mg/mL
Peptide concentration after 180 min [14]: 0.5 mg/mL
Peptide concentration after 24 h [14]: 0.1 mg/mL
Peptide concentration after 5 min [15]: 1.2 mg/mL
Peptide concentration after 180 min [15]: 1.1 mg/mL
Peptide concentration after 24 h [15]: 0.4 mg/mL
Peptide concentration after 5 min [16]: 1.7 mg/mL
Peptide concentration after 180 min [16]: 1.4 mg/mL
Peptide concentration after 5 min [17]: 1.1 mg/mL
Peptide concentration after 180 min [17]: 0.9 mg/mL
Peptide concentration after 24 h [17]: 0.2 mg/mL
Peptide concentration after 5 min [18]: 1.2 mg/mL
Peptide concentration after 180 min [18]: 2.6 mg/mL
Peptide concentration after 24 h [18]: 1.6 mg/mL
Peptide concentration after 5 min [19]: 2.7 mg/mL
Peptide concentration after 180 min [19]: 3.8 mg/mL
Peptide concentration after 5 min [20]: 1.5 mg/mL
Peptide concentration after 180 min [20]: 2.3 mg/mL
Peptide concentration after 24 h [20]: 0.6 mg/mL
Peptide concentration after 5 min [21]: 1.1 mg/mL
Peptide concentration after 180 min [21]: 4.0 mg/mL
Peptide concentration after 24 h [21]: >4.0 mg/mL
Peptide concentration after 5 min [22]: >4.0 mg/mL
Peptide concentration after 180 min [22]: >4.0 mg/mL
Peptide concentration after 5 min [23]: 1.0 mg/mL
Peptide concentration after 180 min [23]: >4.0 mg/mL
Peptide concentration after 24 h [23]: >4.0 mg/mL
Peptide concentration after 5 min [24]: 3.9 mg/mL
Peptide concentration after 180 min [24]: >4.0 mg/mL
Peptide concentration after 5 min [25]: 1.4 mg/mL
Peptide concentration after 180 min [25]: >4.0 mg/mL
Peptide concentration after 24 h [25]: >4.0 mg/mL
Peptide concentration after 5 min [26]: >4.0 mg/mL
Peptide concentration after 180 min [26]: >4.0 mg/mL
Peptide concentration after 5 min [27]: 1.7 mg/mL
Peptide concentration after 180 min [27]: >4.0 mg/mL
Peptide concentration after 24 h [27]: >4.0 mg/mL
Peptide concentration after 5 min [28]: 2.8 mg/mL
Peptide concentration after 180 min [28]: >4.0 mg/mL
Peptide concentration after 5 min [29]: 1.1 mg/mL
Peptide concentration after 180 min [29]: >4.0 mg/mL
Peptide concentration after 24 h [29]: >4.0 mg/mL
Peptide concentration after 5 min [30]: 4.0 mg/mL
Peptide concentration after 180 min [30]: >4.0 mg/mL
Peptide concentration after 5 min [31]: 1.0 mg/mL
Peptide concentration after 180 min [31]: >4.0 mg/mL
Peptide concentration after 24 h [31]: >4.0 mg/mL
Peptide concentration after 5 min [32]: >4.0 mg/mL
Peptide concentration after 180 min [32]: >4.0 mg/mL
Peptide concentration after 5 min [33]: 1.9 mg/mL
Peptide concentration after 180 min [33]: >4.0 mg/mL
Peptide concentration after 24 h [33]: >4.0 mg/mL
Peptide concentration after 5 min [34]: 3.3 mg/mL
Peptide concentration after 180 min [34]: >4.0 mg/mL
Peptide concentration after 5 min [35]: 1.6 mg/mL
Peptide concentration after 180 min [35]: >4.0 mg/mL
Peptide concentration after 24 h [35]: 3.8 mg/mL
Peptide concentration after 5 min [36]: 3.8 mg/mL
Peptide concentration after 180 min [36]: >4.0 mg/mL
Peptide concentration after 5 min [37]: 1.2 mg/mL
Peptide concentration after 180 min [37]: >4.0 mg/mL
Peptide concentration after 24 h [37]: 3.4 mg/mL
Peptide concentration after 5 min [38]: 0.4 mg/mL
Peptide concentration after 180 min [38]: 1.4 mg/mL
SMILES: CCCCCCCCCCCCCCCC(=O)N[C@@H](CCC(=O)NCCCC[C@H](NC(=O)[C@H](C)NC(=O)[C@H](C)NC(=O)[C@H](CCC(N)=O)NC(=O)CNC(=O)[C@H](CCC(=O)O)NC(=O)[C@H](CC(C)C)NC(=O)[C@H](Cc1ccc(O)cc1)NC(=O)[C@H](CO)NC(=O)[C@H](CO)NC(=O)[C@@H](NC(=O)[C@H](CC(=O)O)NC(=O)[C@H](CO)NC(=O)[C@@H](NC(=O)[C@H](Cc1ccccc1)NC(=O)[C@@H](NC(=O)CNC(=O)[C@H](CCC(=O)O)NC(=O)[C@H](C)NC(=O)[C@@H](N)Cc1cnc[nH]1)[C@@H](C)O)[C@@H](C)O)C(C)C)C(=O)N[C@@H](CCC(=O)O)C(=O)N[C@@H](Cc1ccccc1)C(=O)N[C@H](C(=O)N[C@@H](C)C(=O)N[C@@H](Cc1c[nH]c2ccccc12)C(=O)N[C@@H](CC(C)C)C(=O)N[C@H](C(=O)N[C@@H](CCCNC(=N)N)C(=O)NCC(=O)N[C@@H](CCCNC(=N)N)C(=O)NCC(=O)O)C(C)C)[C@@H](C)CC)C(=O)O [liraglutide, Arg34,Lys26-(N-epsilon-(gamma-L-glutamyl(N-alfa-hexadecanoyl)))-GLP-1(7-37)]
